Results are given in words; binding and its absence hold for the method and conditions named. In cells and extracts the contact can be indirect. A yes stands for co-enrichment or nearness to the bait. Other partners may have been found. Tags and fused reporters may be left off the sequences shown.
T1: Flag-tagged EWSR1(2-325)-ATF1(66-271) fusion (UniProt Q01844)
T1 sequence: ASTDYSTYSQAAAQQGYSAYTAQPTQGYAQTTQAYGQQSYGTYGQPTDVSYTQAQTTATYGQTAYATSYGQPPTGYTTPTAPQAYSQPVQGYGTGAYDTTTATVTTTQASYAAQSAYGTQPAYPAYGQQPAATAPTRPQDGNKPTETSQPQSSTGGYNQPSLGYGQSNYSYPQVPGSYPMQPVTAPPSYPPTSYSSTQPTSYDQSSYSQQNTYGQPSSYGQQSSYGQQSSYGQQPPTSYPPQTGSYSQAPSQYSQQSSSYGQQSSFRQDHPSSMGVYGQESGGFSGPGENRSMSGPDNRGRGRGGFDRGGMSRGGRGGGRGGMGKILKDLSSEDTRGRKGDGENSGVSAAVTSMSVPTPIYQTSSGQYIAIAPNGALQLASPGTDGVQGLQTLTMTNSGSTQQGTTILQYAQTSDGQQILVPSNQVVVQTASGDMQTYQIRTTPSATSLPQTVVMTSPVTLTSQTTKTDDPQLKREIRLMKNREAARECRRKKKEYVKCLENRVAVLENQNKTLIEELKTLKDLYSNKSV

The chains behind the UniProt entries cited, without tags or fusion partners.
UniProt P68871: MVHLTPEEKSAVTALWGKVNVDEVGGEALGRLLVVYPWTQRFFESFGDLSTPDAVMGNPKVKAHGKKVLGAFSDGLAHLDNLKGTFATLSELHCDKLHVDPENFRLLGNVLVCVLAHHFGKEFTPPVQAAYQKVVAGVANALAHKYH
UniProt P52732: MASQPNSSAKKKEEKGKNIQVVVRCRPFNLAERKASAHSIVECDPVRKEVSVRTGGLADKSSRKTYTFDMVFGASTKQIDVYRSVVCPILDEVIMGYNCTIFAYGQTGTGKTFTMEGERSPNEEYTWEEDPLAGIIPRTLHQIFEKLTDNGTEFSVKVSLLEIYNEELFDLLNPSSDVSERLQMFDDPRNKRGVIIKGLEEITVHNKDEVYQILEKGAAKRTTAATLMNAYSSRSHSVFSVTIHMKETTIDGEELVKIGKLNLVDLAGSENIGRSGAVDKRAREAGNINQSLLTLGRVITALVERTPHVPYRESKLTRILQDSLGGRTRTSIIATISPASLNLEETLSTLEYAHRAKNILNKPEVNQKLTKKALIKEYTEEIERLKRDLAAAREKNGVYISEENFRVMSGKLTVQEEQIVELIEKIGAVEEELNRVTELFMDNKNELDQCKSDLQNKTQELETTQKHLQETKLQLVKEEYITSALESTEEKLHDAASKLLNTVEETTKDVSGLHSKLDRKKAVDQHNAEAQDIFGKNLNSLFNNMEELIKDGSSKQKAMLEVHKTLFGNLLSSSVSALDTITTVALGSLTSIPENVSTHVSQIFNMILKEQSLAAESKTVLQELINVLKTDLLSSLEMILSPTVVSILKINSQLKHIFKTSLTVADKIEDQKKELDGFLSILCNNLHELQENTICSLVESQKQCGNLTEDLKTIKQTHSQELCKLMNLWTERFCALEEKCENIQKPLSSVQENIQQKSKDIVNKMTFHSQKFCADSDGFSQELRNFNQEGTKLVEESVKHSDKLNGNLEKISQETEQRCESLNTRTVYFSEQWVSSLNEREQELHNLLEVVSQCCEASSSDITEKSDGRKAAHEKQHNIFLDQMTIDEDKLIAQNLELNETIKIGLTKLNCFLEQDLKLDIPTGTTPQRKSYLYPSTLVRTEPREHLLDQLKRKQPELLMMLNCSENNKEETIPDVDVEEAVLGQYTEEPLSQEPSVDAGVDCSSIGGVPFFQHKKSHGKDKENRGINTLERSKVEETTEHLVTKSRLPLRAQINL
UniProt O14744: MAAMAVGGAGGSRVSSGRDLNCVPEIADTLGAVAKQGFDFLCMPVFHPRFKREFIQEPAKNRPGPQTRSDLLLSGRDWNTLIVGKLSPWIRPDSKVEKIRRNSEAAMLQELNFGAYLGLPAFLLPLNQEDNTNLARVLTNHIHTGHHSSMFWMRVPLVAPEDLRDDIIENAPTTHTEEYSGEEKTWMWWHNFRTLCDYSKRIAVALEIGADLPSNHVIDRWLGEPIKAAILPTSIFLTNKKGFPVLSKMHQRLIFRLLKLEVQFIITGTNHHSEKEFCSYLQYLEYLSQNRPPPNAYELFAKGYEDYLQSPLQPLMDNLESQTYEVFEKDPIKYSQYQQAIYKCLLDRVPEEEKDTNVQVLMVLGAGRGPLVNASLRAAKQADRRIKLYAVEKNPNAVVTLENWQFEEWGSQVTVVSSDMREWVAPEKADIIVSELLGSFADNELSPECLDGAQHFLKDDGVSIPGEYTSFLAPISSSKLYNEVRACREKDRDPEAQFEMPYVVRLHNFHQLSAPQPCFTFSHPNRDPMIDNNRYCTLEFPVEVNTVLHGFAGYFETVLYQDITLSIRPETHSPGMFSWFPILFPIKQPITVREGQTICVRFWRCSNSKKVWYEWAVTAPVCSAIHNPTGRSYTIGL

B1: PTGES3 (protein, UniProt Q15185 1-160)
chain: MQPASAKWYDRRDYVFIEFCVEDSKDVNVNFEKSKLTFSCLGGSDNFKHLNEIDLFHCIDPNDSKHKRTDRSILCCLRKGESGQSWPRLTKERAKLNWLSVDFNNWKDWEDDSDEDMSNFDRFSEMMNNMGGDEDVDLPEVDGADDDSQDSDDEKMPDLE
B2: PPM1B (protein, UniProt O75688 1-479)
chain: MGAFLDKPKTEKHNAHGAGNGLRYGLSSMQGWRVEMEDAHTAVVGIPHGLEDWSFFAVYDGHAGSRVANYCSTHLLEHITTNEDFRAAGKSGSALELSVENVKNGIRTGFLKIDEYMRNFSDLRNGMDRSGSTAVGVMISPKHIYFINCGDSRAVLYRNGQVCFSTQDHKPCNPREKERIQNAGGSVMIQRVNGSLAVSRALGDYDYKCVDGKGPTEQLVSPEPEVYEILRAEEDEFIILACDGIWDVMSNEELCEYVKSRLEVSDDLENVCNWVVDTCLHKGSRDNMSIVLVCFSNAPKVSDEAVKKDSELDKHLESRVEEIMEKSGEEGMPDLAHVMRILSAENIPNLPPGGGLAGKRNVIEAVYSRLNPHRESDGASDEAEESGSQGKLVEALRQMRINHRGNYRQLLEEMLTSYRLAKVEGEESPAEPAATATSSNSDAGNPVTMQESHTESESGLAELDSSNEDAGTKMSGEKI

Target: T1, Flag-tagged EWSR1(2-325)-ATF1(66-271) fusion
Test: affinity purification with mass spectrometry; Flag-EWSR1-ATF1 expressed in HEK 293T; lysis buffer A (50 mM Tris, 5 mM EDTA, 150 mM NaCl, 1 mM DTT, 0.5% Nonidet P-40, pH 8.0); IP with anti-Flag (M2) or mouse IgG overnight at 4 C, protein A/G agarose; eluted with 1% SDS in PBS; LC-MS/MS

binding | Molecule
binds | HBB (from UniProt P68871 1-147)
binds | KIF11 (from UniProt P52732 1-1056)
binds | protein arginine methyltransferase 5 (from UniProt O14744 1-637) (enzyme)
binds | B1
binds | B2

— paper PMC9513783
